These are yes or no findings as the source states them, for the method shown. Binding seen in cells or lysates may run through a third protein. Binding can be weak; no strength is given. Tags and fused reporters may be left off the sequences shown.

Binding data for 1 substance are collected here from publication doi:10.1101/2022.02.08.479400.

This assay addresses T1, nEYFP-fused PDR6 (Arabidopsis thaliana) (UniProt Q7PC87).
T1 sequence: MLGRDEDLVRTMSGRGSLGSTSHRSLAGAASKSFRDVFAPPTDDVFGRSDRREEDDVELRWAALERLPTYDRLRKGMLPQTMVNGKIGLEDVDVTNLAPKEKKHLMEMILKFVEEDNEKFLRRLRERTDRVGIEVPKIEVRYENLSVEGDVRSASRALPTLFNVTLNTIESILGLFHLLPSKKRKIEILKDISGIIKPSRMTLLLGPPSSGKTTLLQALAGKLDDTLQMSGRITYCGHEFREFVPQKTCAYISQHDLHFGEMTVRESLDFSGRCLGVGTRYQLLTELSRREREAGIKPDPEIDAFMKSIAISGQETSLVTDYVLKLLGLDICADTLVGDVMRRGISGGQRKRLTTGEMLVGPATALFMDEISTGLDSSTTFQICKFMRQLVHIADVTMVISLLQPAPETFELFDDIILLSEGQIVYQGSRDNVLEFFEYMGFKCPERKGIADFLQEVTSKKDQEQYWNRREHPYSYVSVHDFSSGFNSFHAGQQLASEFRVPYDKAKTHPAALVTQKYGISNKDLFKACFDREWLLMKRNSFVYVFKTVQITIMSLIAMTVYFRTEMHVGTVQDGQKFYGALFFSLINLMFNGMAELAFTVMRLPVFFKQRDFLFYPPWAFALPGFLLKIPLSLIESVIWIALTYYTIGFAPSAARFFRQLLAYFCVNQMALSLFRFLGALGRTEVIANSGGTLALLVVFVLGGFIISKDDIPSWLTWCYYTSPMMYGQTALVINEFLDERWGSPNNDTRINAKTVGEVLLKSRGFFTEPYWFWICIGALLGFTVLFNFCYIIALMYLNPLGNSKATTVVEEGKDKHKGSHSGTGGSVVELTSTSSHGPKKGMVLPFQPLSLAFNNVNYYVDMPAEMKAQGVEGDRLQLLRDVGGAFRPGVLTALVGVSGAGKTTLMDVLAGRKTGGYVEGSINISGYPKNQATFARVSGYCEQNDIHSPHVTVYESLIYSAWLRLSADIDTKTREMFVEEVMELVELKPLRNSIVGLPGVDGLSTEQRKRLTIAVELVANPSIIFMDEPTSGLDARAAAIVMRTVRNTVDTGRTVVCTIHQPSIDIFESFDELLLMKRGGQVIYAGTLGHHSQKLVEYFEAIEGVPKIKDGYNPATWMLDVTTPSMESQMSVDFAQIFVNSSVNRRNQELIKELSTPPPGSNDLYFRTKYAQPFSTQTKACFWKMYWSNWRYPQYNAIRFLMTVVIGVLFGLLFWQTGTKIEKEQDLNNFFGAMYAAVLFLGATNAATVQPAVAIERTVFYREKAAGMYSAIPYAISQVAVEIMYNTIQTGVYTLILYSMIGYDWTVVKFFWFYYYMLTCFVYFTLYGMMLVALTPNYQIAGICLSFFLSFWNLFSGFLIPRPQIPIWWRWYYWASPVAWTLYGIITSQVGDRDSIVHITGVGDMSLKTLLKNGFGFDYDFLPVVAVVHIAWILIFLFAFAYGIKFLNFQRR
Put plainly: split reporter.

Turning to “cEYFP-fused AGC2-2 (from UniProt Q7DST2) (enzyme)”, the binding entry is on record as “binds”.
